Values of other authors, collected in patent US10028971B2, “Compositions and methods for treating psychiatric disorders” (GOSFORTH CENTRE (HOLDINGS) PTY LTD., priority 2008, dated 2018).
At least one compound was matched to its structure with a doubt left.

Test system: mood stabilisation or epileptic symptoms or events
Conditions: usual minimum anti-convulsant dose per day; cited from earlier work

NC(=O)c1cn(Cc2c(F)cccc2F)nn1 [Rufinamide, 1-[(2,6-difluorophenyl)methyl]triazole-4-carboxamide]
Minimum Dose/day effective for mood stabilisation or treatment of epileptic symptoms or events: 400 mg
